Experimental data taken from paper PMC7819943, “Rice protein-binding microarrays: a tool to detect cis-acting elements near promoter regions in rice”.
The other results are listed elsewhere or left out.

These sequences were tested against T1, OsSMF1 (Oryza sativa, UniProt Q6ZLB0 1-436) (assay: protein-binding microarray (RPBM); PBS, 2% BSA, 51.3 ng/ul salmon testes DNA, 50 uM zinc acetate, 200 nM TF, 25 C, 1 h; high values mean tight binding). Details: protein: recombinant; tags: N-terminal polyhistidine and DsRed monomer fusion (pET32a); chain copies: 2; label: CyDye5-dUTP incorporated in the synthesized complementary strand; 3' TTTTT single-stranded linker to array surface; dsDNA, one strand shown.
T1 sequence: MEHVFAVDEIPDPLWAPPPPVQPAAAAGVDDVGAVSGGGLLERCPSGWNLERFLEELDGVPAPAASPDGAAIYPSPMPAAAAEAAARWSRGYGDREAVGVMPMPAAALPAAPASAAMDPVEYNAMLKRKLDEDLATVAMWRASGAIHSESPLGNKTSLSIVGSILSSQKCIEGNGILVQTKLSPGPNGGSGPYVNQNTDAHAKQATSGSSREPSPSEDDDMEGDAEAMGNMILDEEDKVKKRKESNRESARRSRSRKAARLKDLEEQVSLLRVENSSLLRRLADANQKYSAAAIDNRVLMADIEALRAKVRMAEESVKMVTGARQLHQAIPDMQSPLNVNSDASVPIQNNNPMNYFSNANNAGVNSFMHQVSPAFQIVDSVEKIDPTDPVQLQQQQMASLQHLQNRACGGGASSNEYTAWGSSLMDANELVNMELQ
Method in brief: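 For the binding signal, per-feature fluorescence intensity was read in arbitrary units on an Axon 4000B scanner. Before scanning, a 2% BSA-blocked custom Agilent array made double-stranded with Cy5-dUTP was washed after 1 h at 25 °C with 200 nM protein and 50 µM zinc acetate. The proteins were Ni–NTA-purified transcription factors with N-terminal polyhistidine and DsRed fusions, expressed in E. coli BL21-CodonPlus.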

Sequence	binding signal
CGTCGTTCTATTTGGCGTTGAGGTGTCTAATTTCAGCGCCCGGAGTCACCTAGTGCAG	30500 fluorescence intensity (a.u.)
CTTACTCTGCAATATCATGTGGCCACGCAAGGACACAATTCGGAGTCACCTAGTGCAG	5460 fluorescence intensity (a.u.)
TCTCAGCATGGTCTACATCATCCAAGGTTTGTATGATGATCGGAGTCACCTAGTGCAG	3220 fluorescence intensity (a.u.)
TAATACAGATTATAACAATCTAGCTTATAGTAATCTGACTCGGAGTCACCTAGTGCAG	23100 fluorescence intensity (a.u.)
CCCTTTTCGTTCCCCACCATCCACGCGGCCGTCCATCCCTCGGAGTCACCTAGTGCAG	4000 fluorescence intensity (a.u.)
GTTGACGGGGTTTGTGAGGTGTGGCGGTGACTTGGAAAGACGGAGTCACCTAGTGCAG	3540 fluorescence intensity (a.u.)
ATATTTTATGATCTGATGAATCATTGGTGAAAAGTGAATGCGGAGTCACCTAGTGCAG	3250 fluorescence intensity (a.u.)
ATTCTTCACACATCTGCACTTTCAGCTTCCCCTATCGTGGCGGAGTCACCTAGTGCAG	3660 fluorescence intensity (a.u.)
TCCGGCGAGCCTCGCCGCCGGCGTCAGCAAGCTCATCCCCCGGAGTCACCTAGTGCAG	5990 fluorescence intensity (a.u.)
CCGGCCCATCGAAGGCTACACGTCTCCCCGCGGGCGTGTGCGGAGTCACCTAGTGCAG	3420 fluorescence intensity (a.u.)
CAATCCGCCCGTTCCGGCCACCCCACCGCCCCGGAATCCCCGGAGTCACCTAGTGCAG	3410 fluorescence intensity (a.u.)
GGTACCAGGTGGTACCAAGTACCATGAAGGAGTCACTACTCGGAGTCACCTAGTGCAG	3280 fluorescence intensity (a.u.)
GCGGCGGAGGGCGACGAGGCAGCGGCTGCATTGGCGGTGGCGGAGTCACCTAGTGCAG	3320 fluorescence intensity (a.u.)
CCAGCACCCCGGAGACCTGGCTCAGCGCCGACACCCTGTCCGGAGTCACCTAGTGCAG	25300 fluorescence intensity (a.u.)
CCATGAAGGAGCTTGTCCACATCATACTGCATCGGGGAGCCGGAGTCACCTAGTGCAG	9100 fluorescence intensity (a.u.)
CATAGATCTTTTGACTAGGTTTTCGTTCCACGTGGCATCACGGAGTCACCTAGTGCAG	12900 fluorescence intensity (a.u.)
AACCAGCCTACCAACCCGTCAAGTCATCGACACAGGGATCCGGAGTCACCTAGTGCAG	3320 fluorescence intensity (a.u.)
ATTTTCATGCTTAGATGTAGTAACTACACCAACATTACATCGGAGTCACCTAGTGCAG	3310 fluorescence intensity (a.u.)
CAAAATGAACCACAAACTGATTTGCTCCTCCCGAAGGTTCCGGAGTCACCTAGTGCAG	37600 fluorescence intensity (a.u.)
GCGGCGCGCGCGGTGGAGCGGTACCGCGTGACGAAGCTGTCGGAGTCACCTAGTGCAG	3620 fluorescence intensity (a.u.)
TCTGCCTTGAAGTGGTACCGTGGGTGGGAGGGTAGTTATGCGGAGTCACCTAGTGCAG	3480 fluorescence intensity (a.u.)

A few values from the list.
binding signal with AACCAGCCTACCAACCCGTCAAGTCATCGACACAGGGATCCGGAGTCACCTAGTGCAG is entered as 3320 fluorescence intensity (a.u.)
binding signal with GGTACCAGGTGGTACCAAGTACCATGAAGGAGTCACTACTCGGAGTCACCTAGTGCAG is entered as 3280 fluorescence intensity (a.u.)

Later entries:

Sequence	binding signal
TCACCGCGCTGCAGACGCTGCTCGTCAGCAACAACCGGCTCGGAGTCACCTAGTGCAG	3820 fluorescence intensity (a.u.)
GTGATCTTGAAGAGTTGTGTGATTAGACGACGTGGATATACGGAGTCACCTAGTGCAG	21900 fluorescence intensity (a.u.)
TCATCCTGTCATCCCCATGAATGCGGATGTCACCACTCGTCGGAGTCACCTAGTGCAG	4140 fluorescence intensity (a.u.)
ATGTTGCCTCGCTGTCAAACTGACTGTAATCCAACTCCACCGGAGTCACCTAGTGCAG	4096 fluorescence intensity (a.u.)
ATGCAAGAGCTAGCGCAACCGTGGTGACGCAACCAAGAGACGGAGTCACCTAGTGCAG	3960 fluorescence intensity (a.u.)
TTACGTACTTGCACTATCTGTCATCCTGTATCTGGGACCGCGGAGTCACCTAGTGCAG	3700 fluorescence intensity (a.u.)
TTTCCTACCGACCAGACGATGACGGAGAGGGTGACGCAGGCGGAGTCACCTAGTGCAG	6220 fluorescence intensity (a.u.)
CGACACAGCCCCGACAGGCGAGACACGTAACCATCACGCCCGGAGTCACCTAGTGCAG	9260 fluorescence intensity (a.u.)
GCTTCCGGCCCTGTGTCACGCCGCGCCGTTCCTCGTCGTCCGGAGTCACCTAGTGCAG	3590 fluorescence intensity (a.u.)
AACAGGGAATCGAACCCATGATGTCGGGATGCTACGACATCGGAGTCACCTAGTGCAG	3380 fluorescence intensity (a.u.)
AGTCGAGAGTGACAGAGCACGTGTACACTTGGACATGGACCGGAGTCACCTAGTGCAG	3520 fluorescence intensity (a.u.)
CGTGGGTTTCTCCACACATATTGGTGGCATACGGCATACCCGGAGTCACCTAGTGCAG	3500 fluorescence intensity (a.u.)
CGGATTCTCGTCGGCTTCGGCGACCGGAAGAGGAGAGGAGCGGAGTCACCTAGTGCAG	3230 fluorescence intensity (a.u.)
CGTCAGGCTGCTCGCCGCCGGCGCTGACGTCGTTCTACGGCGGAGTCACCTAGTGCAG	5960 fluorescence intensity (a.u.)
TGTCAGTTTTAGCTGAATCATCATGTATGGTTAAAACTATCGGAGTCACCTAGTGCAG	4000 fluorescence intensity (a.u.)
TAATGATGTTACCACGCAATCTGCGCGAGCCACCATGCTACGGAGTCACCTAGTGCAG	3740 fluorescence intensity (a.u.)
CTGCAATGCATTATATGACAAGCTGCATGATGTGGAAGAACGGAGTCACCTAGTGCAG	3170 fluorescence intensity (a.u.)
CTCCCTCCGCCGCCCCGGTTACGCAACCAAATACCGACGGCGGAGTCACCTAGTGCAG	35600 fluorescence intensity (a.u.)
ACGGCGGTGAACACCACGAACAGCTCCGGGCCATCACGGTCGGAGTCACCTAGTGCAG	25900 fluorescence intensity (a.u.)
GAACGGAACAGAGTGTGACACGGCATATATGTACTTTCCCCGGAGTCACCTAGTGCAG	10500 fluorescence intensity (a.u.)
GCCGTAGCGAGATCTGTAGCAACCAGTGCGCCTTCGCCGTCGGAGTCACCTAGTGCAG	3150 fluorescence intensity (a.u.)

Sequence	binding signal
TATGGGAGTTTAGAGACGAATAACTGACGTAATCAAAATCCGGAGTCACCTAGTGCAG	6090 fluorescence intensity (a.u.)
TCTCTCAAGATAGCTGCCAGCTCACGCCAGCTTACAAGTTCGGAGTCACCTAGTGCAG	6540 fluorescence intensity (a.u.)
GTACGCCATGCTGCACCTCCTGCACCGCCACATGAAGCACCGGAGTCACCTAGTGCAG	3260 fluorescence intensity (a.u.)
ATAATATCACACGTACACTCCCACATATACACTCTCTTTCCGGAGTCACCTAGTGCAG	3140 fluorescence intensity (a.u.)
GCCGCTCGCCGCCGTGCTCGCCGTGATCCTGCTGCCGTCGCGGAGTCACCTAGTGCAG	3800 fluorescence intensity (a.u.)
TTCGATGGCATCGTGGCTTCTCGCATTCCCTCTTGTGGAGCGGAGTCACCTAGTGCAG	25800 fluorescence intensity (a.u.)
CCCTTCAATTTTCTAGCTATAGCATCCTTCCGTGACGCAGCGGAGTCACCTAGTGCAG	5230 fluorescence intensity (a.u.)
CTTGCCATGTCACAATCCTATCTCTTGCAGTCGCAGGCCGCGGAGTCACCTAGTGCAG	6940 fluorescence intensity (a.u.)
AAGAAGAAGACGACGACGTGGCGAGCCAAGTAGCAGCAAACGGAGTCACCTAGTGCAG	3620 fluorescence intensity (a.u.)
ATTTCCCTCCTGGTTTGAATCAGCATTGATCTGGTTTTCCCGGAGTCACCTAGTGCAG	4590 fluorescence intensity (a.u.)
ATGCTGGATGCATTTGATGACTTGGTAAATGTAGAGAAGACGGAGTCACCTAGTGCAG	4270 fluorescence intensity (a.u.)
CAGAAAGTCGTGCGTTGGACTGATCCTTTGCAAATGATCACGGAGTCACCTAGTGCAG	3200 fluorescence intensity (a.u.)
TAGTTTTCTCAGGTGTTTGGGAATTGGTTGGTGAAGATGACGGAGTCACCTAGTGCAG	9530 fluorescence intensity (a.u.)
CGGTCACGCAGGATGGACGTGCGGCACCGCCTCGCTCTTACGGAGTCACCTAGTGCAG	22700 fluorescence intensity (a.u.)
GCGACTTGGCCAGCCCAGGAGCCTCACTTGGCCTTGGGAACGGAGTCACCTAGTGCAG	36200 fluorescence intensity (a.u.)
CTCACTTTTCGCGGCAACCTCAGTGAAGTCAGCGAGGTGACGGAGTCACCTAGTGCAG	31700 fluorescence intensity (a.u.)
TCGAACCCGACGCCGCCGCCGTGACGCGGCGCTCCCTCCGCGGAGTCACCTAGTGCAG	11600 fluorescence intensity (a.u.)
CGCCCCTCTCCTTGCCTGCAACGTCACATTCCCCACACTCCGGAGTCACCTAGTGCAG	7060 fluorescence intensity (a.u.)
GAAAGTGGACTCTATTATTATCCTTCCTCTAATCACCCATCGGAGTCACCTAGTGCAG	19300 fluorescence intensity (a.u.)
AAGCGATCAAGAGGAAATAATTCAAATGGCTGCCCGGTTGCGGAGTCACCTAGTGCAG	3330 fluorescence intensity (a.u.)
GCCAATACTAGTACAGTGAGTGAGTCATTTGCATCTGCATCGGAGTCACCTAGTGCAG	8300 fluorescence intensity (a.u.)

Sequence	binding signal
GCCGTAGAAAACAATGGATAGCACAGATTTGGCCAACTCCCGGAGTCACCTAGTGCAG	3250 fluorescence intensity (a.u.)
TGCCCGGGGCGCGCTACTACGGCGGGAACGACGTCATCGACGGAGTCACCTAGTGCAG	3940 fluorescence intensity (a.u.)
TCACATCCCATGCGAAGAACACATCACCCAGTTCACCACCCGGAGTCACCTAGTGCAG	4540 fluorescence intensity (a.u.)
TGTCAGTTGGCGAGGGATGCACTGATGACTATGCTAGTGCCGGAGTCACCTAGTGCAG	4860 fluorescence intensity (a.u.)
TGCATTCAGCGCTAGGTGCGAGAAGTGCTGGTCAAACACCCGGAGTCACCTAGTGCAG	32900 fluorescence intensity (a.u.)
GTGCCATCCTGATTTGTCCCTCCCTGTCGCCTCACTGTTTCGGAGTCACCTAGTGCAG	3300 fluorescence intensity (a.u.)
AGCCTCTTCCATCTCGAGCCAGCTCATATTGATTATCCAACGGAGTCACCTAGTGCAG	4850 fluorescence intensity (a.u.)
ATTGAATCATTTACTATGCTCTGCTTCTTCTTTCAGTTCACGGAGTCACCTAGTGCAG	15200 fluorescence intensity (a.u.)
GTGTACATCACACCGATAATAATCACGTAATCACGTTAGGCGGAGTCACCTAGTGCAG	3570 fluorescence intensity (a.u.)
CTCCAAAGCAGATCCACCCACGCGCCACCAGCTCATCATTCGGAGTCACCTAGTGCAG	4560 fluorescence intensity (a.u.)
AGAATAGCTCCAATTCAAATTCGGAAAGCCAATCGTCTTCCGGAGTCACCTAGTGCAG	35000 fluorescence intensity (a.u.)
AGATAATCCATAATAATAATTAGCTTAATAATCTAAATCACGGAGTCACCTAGTGCAG	27300 fluorescence intensity (a.u.)
TAATTTAGTATTATAAAGAGGGTGTGATCGGTACCCTCTTCGGAGTCACCTAGTGCAG	3320 fluorescence intensity (a.u.)
TCCTCCTCCTCCTCCGCTCGATTCCTCCTCTCGCCTCGCTCGGAGTCACCTAGTGCAG	5220 fluorescence intensity (a.u.)
AGCACTGTTGATCCTGCATGATTATCTTCGGCTGCTGATGCGGAGTCACCTAGTGCAG	4040 fluorescence intensity (a.u.)
ACACCGCTCGCCTCCGTCCGCCTCGCCTCCACCGAGAGGTCGGAGTCACCTAGTGCAG	27100 fluorescence intensity (a.u.)
GAGCGACGCGACGAGATTTTCCACGTGGATCGGGCCGGGACGGAGTCACCTAGTGCAG	14300 fluorescence intensity (a.u.)
CATGAAAGCTTGCAAGTCTAATAACACGTGTTTAATTGATCGGAGTCACCTAGTGCAG	4340 fluorescence intensity (a.u.)
GATGTGGGTTTCGTACACCGGCAGGTGACGGGTCGTGTCCCGGAGTCACCTAGTGCAG	4130 fluorescence intensity (a.u.)
CTGGTACTAATCTCTGACAGGGACAGAGTATTTACCAGTCCGGAGTCACCTAGTGCAG	4000 fluorescence intensity (a.u.)
CTTCGTATGTATAAACTATATGTAAGGAAATATTGTATATCGGAGTCACCTAGTGCAG	16400 fluorescence intensity (a.u.)
